# Measurements published in publication PMC7081352.
# By UniProt entry, the sequences of proteins in these tests, tags left out.
# UniProt O35964: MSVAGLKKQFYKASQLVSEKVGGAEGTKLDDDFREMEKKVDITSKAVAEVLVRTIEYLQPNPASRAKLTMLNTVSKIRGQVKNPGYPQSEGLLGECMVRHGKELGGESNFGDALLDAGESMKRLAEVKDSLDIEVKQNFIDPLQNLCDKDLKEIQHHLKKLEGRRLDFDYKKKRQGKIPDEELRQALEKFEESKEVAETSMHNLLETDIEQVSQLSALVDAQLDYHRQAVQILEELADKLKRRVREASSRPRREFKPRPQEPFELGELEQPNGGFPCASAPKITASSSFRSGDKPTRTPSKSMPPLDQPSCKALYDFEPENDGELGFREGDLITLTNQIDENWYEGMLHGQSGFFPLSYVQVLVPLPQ
# UniProt P15311: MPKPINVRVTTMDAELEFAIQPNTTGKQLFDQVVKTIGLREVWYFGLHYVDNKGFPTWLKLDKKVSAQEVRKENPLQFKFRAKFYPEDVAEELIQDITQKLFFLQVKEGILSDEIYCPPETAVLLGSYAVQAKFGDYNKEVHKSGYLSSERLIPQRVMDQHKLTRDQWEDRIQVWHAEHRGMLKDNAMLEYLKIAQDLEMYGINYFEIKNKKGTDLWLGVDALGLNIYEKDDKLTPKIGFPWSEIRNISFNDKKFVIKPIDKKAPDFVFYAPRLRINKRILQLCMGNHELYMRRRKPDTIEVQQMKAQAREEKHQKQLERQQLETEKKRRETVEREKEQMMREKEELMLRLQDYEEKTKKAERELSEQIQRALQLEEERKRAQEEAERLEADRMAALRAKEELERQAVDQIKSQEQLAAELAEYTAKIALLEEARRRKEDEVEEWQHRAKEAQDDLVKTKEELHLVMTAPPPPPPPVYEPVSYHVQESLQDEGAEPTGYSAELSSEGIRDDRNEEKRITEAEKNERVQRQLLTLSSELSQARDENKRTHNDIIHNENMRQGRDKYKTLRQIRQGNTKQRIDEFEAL
# UniProt Q99963: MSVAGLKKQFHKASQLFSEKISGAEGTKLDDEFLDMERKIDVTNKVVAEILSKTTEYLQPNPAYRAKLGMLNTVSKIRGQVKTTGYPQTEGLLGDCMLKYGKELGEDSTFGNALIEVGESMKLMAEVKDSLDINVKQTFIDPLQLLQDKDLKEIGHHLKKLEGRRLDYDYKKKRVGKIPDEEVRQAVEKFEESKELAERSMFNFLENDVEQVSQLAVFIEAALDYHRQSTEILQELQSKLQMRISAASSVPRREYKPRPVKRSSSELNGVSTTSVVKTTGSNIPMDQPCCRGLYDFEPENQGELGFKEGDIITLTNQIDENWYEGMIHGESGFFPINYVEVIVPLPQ
# These are yes or no findings as the source states them, for the method shown. In cells and extracts the contact can be indirect. Some binding calls cover weakened binding; strength is not graded here. Where a sequence is shown, tags or fusion partners need not be part of it.
# Molecular target: T1, GST-tagged CD166 cytoplasmic tail (human) (UniProt Q13740)
# T1 sequence: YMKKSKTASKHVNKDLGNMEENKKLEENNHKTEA
# Test: pull-down; GST-CD166 tail on glutathione beads exposed to lysates of HeLa cells stably expressing endoA2- or endoA3-GFP-FKBP for 2 h at 4 °C; 150 mM NaCl, 25 mM HEPES pH 7.4, 2 mM EDTA, 1% NP40; five washes; immunoblot with anti-endoA2, anti-endoA3 and anti-ezrin; only the target purified
row,binding,Substance
1,no binding,"endophilin-A2, GFP-FKBP-tagged (from UniProt O35964 1-368)"
2,binds,ezrin (from UniProt P15311 1-586)
3,binds weakly,"human endophilin-A3, C-terminally GFP-FKBP-tagged (from UniProt Q99963 1-347)"
